# In the supplement of paper PMC10849652:
# By UniProt entry, the sequences of proteins in these tests, tags left out. Where a name states a change or a piece, a line headed by the entry shows the natural chain unless it says otherwise.
# UniProt Q9Y295: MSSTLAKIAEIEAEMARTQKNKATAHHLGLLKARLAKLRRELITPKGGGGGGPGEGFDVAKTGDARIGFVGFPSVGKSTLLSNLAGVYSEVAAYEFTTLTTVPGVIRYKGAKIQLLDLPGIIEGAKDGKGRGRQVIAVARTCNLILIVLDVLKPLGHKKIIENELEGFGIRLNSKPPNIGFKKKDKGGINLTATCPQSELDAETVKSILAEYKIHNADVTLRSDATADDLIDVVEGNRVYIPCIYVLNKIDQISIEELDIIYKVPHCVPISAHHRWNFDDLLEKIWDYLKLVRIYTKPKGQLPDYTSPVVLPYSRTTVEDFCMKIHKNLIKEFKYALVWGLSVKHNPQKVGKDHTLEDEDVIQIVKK
# UniProt Q9NRW4: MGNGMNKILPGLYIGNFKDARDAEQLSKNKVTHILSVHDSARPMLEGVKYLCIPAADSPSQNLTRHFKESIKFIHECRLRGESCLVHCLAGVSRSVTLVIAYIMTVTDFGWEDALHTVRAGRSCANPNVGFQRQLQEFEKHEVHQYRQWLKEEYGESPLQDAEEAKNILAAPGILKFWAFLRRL
# UniProt Q96FN9: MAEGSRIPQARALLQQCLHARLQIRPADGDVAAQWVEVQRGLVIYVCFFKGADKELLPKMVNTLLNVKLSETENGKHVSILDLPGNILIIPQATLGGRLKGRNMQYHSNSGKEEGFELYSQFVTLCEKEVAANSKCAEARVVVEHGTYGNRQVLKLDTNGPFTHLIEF
# EEF1AKMT2, A0A494BZY7, UniProt A0A494BZY7, whole entry, looked up: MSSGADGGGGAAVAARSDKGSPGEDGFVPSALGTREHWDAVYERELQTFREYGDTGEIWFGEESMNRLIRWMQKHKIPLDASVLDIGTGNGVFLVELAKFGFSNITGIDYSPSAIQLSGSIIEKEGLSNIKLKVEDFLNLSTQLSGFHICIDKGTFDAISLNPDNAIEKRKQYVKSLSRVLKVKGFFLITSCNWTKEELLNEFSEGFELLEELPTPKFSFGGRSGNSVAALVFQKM
# UniProt P33316: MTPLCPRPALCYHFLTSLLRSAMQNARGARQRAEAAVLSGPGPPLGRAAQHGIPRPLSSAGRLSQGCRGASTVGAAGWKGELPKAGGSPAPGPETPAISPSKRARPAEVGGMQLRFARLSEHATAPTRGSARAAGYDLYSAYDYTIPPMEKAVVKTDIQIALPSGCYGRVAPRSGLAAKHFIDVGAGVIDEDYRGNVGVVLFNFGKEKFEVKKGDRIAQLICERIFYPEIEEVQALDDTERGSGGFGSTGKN
# UniProt Q9H9B1: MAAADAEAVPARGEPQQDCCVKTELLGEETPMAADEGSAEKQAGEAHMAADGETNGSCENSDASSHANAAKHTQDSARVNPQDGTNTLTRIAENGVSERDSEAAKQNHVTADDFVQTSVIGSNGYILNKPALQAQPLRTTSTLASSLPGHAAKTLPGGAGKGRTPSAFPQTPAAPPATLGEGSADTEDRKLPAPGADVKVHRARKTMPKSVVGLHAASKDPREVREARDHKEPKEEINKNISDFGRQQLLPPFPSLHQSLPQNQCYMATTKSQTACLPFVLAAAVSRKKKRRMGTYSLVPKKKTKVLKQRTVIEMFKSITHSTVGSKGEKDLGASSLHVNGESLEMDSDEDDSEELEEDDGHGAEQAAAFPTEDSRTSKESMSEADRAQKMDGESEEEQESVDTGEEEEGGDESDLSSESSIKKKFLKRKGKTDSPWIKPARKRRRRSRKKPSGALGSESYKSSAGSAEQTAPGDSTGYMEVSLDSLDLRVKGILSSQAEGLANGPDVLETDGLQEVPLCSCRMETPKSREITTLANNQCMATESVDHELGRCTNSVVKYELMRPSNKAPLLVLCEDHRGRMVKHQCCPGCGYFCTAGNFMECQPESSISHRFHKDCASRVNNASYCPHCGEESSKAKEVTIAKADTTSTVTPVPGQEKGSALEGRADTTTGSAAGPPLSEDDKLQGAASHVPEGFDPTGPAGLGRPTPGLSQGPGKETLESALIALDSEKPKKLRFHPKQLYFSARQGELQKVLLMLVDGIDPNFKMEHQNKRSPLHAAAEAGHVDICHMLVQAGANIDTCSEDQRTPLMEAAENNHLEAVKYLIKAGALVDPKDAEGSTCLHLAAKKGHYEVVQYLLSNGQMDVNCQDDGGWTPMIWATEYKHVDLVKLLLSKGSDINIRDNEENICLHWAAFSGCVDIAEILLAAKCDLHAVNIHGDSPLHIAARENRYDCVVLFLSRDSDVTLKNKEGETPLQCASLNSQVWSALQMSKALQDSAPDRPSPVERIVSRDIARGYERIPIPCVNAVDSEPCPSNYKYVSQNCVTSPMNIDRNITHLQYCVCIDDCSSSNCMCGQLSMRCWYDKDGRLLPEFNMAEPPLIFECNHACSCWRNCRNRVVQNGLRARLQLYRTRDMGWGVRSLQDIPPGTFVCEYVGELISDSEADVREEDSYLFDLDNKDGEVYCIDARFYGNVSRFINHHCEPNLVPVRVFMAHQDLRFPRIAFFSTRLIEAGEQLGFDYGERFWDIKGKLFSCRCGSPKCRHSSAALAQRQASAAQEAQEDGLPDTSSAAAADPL
# UniProt Q92997: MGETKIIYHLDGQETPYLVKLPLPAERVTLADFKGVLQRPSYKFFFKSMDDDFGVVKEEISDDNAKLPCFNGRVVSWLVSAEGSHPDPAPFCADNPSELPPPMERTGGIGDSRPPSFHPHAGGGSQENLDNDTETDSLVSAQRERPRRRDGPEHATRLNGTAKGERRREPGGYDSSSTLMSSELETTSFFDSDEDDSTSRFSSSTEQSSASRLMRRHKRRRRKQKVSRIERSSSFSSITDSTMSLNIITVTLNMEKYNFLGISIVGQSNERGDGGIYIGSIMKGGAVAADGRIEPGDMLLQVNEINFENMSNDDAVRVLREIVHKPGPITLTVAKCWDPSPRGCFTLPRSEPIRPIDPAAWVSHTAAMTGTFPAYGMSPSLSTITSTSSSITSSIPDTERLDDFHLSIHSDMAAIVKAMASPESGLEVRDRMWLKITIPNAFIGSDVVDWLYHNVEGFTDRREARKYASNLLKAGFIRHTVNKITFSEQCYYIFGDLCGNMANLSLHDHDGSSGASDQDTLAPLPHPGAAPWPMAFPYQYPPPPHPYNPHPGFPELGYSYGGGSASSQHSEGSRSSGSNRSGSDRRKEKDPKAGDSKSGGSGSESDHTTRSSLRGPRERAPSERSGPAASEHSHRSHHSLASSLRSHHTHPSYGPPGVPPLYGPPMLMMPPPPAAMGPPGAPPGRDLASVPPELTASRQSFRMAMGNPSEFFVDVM
# UniProt Q9BUP0: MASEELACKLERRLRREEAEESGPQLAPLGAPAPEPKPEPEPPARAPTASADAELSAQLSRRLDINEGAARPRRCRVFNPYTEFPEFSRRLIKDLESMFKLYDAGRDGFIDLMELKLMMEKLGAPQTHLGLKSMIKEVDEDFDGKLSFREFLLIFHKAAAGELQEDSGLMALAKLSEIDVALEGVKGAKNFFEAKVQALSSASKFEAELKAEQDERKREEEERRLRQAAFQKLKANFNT
# UniProt P26641, whole entry, looked up: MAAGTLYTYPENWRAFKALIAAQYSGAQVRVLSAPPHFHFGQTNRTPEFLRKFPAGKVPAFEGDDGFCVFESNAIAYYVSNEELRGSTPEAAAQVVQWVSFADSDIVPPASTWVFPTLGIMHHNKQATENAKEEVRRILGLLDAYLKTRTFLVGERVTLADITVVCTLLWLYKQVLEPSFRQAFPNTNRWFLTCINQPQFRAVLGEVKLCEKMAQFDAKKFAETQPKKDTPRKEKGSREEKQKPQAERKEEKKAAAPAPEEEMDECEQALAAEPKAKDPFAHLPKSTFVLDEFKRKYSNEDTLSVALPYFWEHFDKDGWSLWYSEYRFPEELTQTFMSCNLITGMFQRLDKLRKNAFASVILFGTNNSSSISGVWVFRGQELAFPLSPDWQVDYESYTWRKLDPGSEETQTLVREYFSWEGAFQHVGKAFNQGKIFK
# UniProt O75923: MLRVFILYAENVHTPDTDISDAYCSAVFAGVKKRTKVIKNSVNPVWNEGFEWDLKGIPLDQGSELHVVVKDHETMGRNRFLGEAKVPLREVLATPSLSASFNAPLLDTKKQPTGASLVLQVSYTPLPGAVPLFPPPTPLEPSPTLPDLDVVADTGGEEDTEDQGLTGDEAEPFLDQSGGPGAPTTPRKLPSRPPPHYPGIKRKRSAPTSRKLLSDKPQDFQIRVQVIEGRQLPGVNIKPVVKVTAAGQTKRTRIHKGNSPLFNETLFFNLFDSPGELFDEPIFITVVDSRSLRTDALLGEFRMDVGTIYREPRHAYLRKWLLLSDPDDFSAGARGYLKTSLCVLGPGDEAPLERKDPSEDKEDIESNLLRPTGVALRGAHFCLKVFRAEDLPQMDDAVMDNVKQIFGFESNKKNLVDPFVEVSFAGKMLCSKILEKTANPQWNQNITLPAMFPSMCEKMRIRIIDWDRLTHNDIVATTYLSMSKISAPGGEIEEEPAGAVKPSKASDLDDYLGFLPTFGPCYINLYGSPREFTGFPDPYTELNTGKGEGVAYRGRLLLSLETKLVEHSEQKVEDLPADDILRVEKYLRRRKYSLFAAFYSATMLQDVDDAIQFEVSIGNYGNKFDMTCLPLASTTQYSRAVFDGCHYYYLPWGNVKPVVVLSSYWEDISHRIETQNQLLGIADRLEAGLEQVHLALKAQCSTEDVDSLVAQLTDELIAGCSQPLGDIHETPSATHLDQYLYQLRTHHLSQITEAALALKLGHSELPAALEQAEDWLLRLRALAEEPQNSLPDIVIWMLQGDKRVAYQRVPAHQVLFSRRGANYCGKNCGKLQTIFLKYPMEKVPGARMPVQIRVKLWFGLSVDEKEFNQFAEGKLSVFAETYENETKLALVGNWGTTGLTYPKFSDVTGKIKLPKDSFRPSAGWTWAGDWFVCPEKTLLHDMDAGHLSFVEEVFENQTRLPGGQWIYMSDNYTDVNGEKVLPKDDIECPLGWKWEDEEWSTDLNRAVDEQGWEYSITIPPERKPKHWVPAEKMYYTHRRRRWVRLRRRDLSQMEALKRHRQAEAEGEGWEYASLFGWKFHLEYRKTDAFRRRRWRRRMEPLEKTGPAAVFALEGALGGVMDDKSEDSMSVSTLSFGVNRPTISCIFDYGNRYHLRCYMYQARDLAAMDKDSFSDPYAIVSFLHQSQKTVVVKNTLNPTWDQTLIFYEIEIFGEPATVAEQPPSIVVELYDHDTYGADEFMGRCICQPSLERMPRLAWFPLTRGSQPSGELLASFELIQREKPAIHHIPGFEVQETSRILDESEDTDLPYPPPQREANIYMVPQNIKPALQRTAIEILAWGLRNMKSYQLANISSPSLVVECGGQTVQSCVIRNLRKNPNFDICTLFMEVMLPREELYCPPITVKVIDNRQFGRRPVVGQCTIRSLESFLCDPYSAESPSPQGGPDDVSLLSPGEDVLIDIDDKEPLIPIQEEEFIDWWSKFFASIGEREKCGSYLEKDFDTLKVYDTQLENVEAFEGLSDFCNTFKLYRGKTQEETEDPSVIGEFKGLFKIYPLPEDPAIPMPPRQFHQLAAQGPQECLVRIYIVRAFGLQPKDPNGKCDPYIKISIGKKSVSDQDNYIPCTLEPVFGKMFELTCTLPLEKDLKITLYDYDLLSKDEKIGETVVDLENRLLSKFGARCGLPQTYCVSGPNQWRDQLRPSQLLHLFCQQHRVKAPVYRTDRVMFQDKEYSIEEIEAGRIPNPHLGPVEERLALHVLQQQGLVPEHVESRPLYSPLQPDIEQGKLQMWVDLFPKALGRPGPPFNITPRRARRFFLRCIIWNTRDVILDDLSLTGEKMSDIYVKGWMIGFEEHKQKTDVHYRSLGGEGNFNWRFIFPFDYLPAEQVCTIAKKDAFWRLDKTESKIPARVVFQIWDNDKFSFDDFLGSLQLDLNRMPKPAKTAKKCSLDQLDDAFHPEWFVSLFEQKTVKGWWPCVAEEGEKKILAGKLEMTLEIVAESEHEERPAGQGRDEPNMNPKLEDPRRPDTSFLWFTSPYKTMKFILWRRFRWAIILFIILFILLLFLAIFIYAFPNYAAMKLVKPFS
# UniProt P63172, whole entry, looked up: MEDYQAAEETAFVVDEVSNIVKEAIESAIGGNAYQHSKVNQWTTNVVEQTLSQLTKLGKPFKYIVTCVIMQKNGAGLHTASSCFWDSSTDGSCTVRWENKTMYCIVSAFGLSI
# UniProt Q01658: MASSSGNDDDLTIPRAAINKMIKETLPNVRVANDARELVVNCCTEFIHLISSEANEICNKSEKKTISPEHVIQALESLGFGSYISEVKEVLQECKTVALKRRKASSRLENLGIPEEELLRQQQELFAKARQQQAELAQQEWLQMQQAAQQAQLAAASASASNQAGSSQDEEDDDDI
# UniProt Q8TEA8: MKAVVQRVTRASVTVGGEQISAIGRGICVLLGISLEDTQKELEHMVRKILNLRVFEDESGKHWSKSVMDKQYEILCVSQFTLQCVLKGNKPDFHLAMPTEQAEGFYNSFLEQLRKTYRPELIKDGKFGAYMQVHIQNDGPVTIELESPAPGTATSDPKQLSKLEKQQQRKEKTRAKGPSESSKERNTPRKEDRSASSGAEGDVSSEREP
# This is one part of the list.
# How the values were obtained:
# Experiment in all cases: log2 fold change, soluble protein after heating vs DMSO (PISA); higher = thermal stabilisation; K562 lysate, 10 uM; active = over 0.2 and 3.5 SD of the protein, either way, in both replicates (recomputed)
# [1] = compound: NCC(=O)Nc1ccc(-n2nc(C(F)(F)F)cc2-c2ccc3c(ccc4ccccc43)c2)cc1
# Outline: (§1)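 To prepare the extract, K562 pellets were dounce-homogenised in PBS pH 7.4 with 1 mM MgCl2, giving crude material at 1 mg/mL protein. This was treated with 10 μM compound for 30 min, then heated in aliquots for 3 min over 48°C-58°C before pooling and addition of NP-40 to 0.5% at 4°C. Centrifugation at 21,000xg for 90 min left soluble protein in the supernatant, which TMTpro 16plex LC-MS/MS quantified with equalised channel sums. Results are log-two fold changes in thermal stability compared with solvent controls, from duplicates.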
# vorinostat = compound: O=C(CCCCCCC(=O)Nc1ccccc1)NO [vorinostat]
# Outline: as §1
# silmitasertib = compound: O=C(O)c1ccc2c(c1)nc(Nc1cccc(Cl)c1)c1ccncc12 [silmitasertib]
# Outline: as §1
# [2] = compound: O=C1NC(=O)C(c2cnc3ccccn23)=C1c1cn2c3c(cc(F)cc13)CN(C(=O)N1CCCCC1)CC2
# Outline: as §1
# entospletinib = compound: c1cn2cc(-c3ccc4cn[nH]c4c3)nc(Nc3ccc(N4CCOCC4)cc3)c2n1 [entospletinib]
# Outline: as §1
Target,log2 fold change [1],log2 fold change (vorinostat),log2 fold change (silmitasertib),log2 fold change [2],log2 fold change (entospletinib)
DRG1 (UniProt Q9Y295),inactive: -0.009,inactive: 0.068,inactive: -0.025,inactive: -0.015,inactive: 0.003
DSCC1 (UniProt Q9BVC3),inactive: -0.058,inactive: -0.057,inactive: 0.023,inactive: -0.089,inactive: 0.019
DUSP22 isoform 2 (UniProt Q9NRW4),inactive: -0.025,inactive: -0.102,inactive: 0.002,,
DTD2 (UniProt Q96FN9),inactive: 0.1,inactive: 0.05,inactive: 0.026,inactive: 0.007,inactive: 0.123
"EEF1AKMT2, A0A494BZY7",inactive: 0.088,inactive: 0.035,inactive: 0.004,inactive: 0.045,inactive: 0.013
DYNC1LI1 (UniProt Q9Y6G9),inactive: 0.006,inactive: -0.025,inactive: 0.014,inactive: 0,inactive: 0.017
DUT (UniProt P33316),inactive: 0.025,inactive: 0.071,inactive: -0.018,inactive: 0.002,inactive: 0.003
EEF1AKNMT (UniProt Q8N6R0),inactive: -0.004,active: -0.414,inactive: 0.076,inactive: -0.005,inactive: 0.026
EHMT1 (UniProt Q9H9B1),inactive: 0.085,inactive: -0.107,inactive: -0.049,inactive: -0.005,inactive: -0.014
DVL3 (UniProt Q92997),inactive: 0.359,inactive: -0.119,inactive: -0.062,inactive: 0.075,inactive: -0.049
EHMT2 (UniProt A2ABF8),inactive: -0.027,inactive: -0.128,inactive: 0.015,inactive: -0.009,inactive: -0.017
EFHD1 (UniProt Q9BUP0),inactive: 0.002,inactive: 0.143,inactive: -0.014,inactive: 0.031,inactive: -0.002
E2F3 (UniProt O00716),inactive: -0.076,inactive: 0.099,inactive: 0.004,inactive: 0.015,inactive: 0.062
EFHD2 (UniProt Q96C19),inactive: -0.015,inactive: 0.114,inactive: -0.004,inactive: 0.009,inactive: 0.018
DPH2 (UniProt Q9BQC3),inactive: -0.023,inactive: 0.027,inactive: 0.002,inactive: 0.019,inactive: 0
EEF1G isoform 2 (UniProt P26641),inactive: -0.048,inactive: -0.145,inactive: 0.038,inactive: -0.023,inactive: 0.016
DVL2 (UniProt O14641),inactive: -0.056,active: 0.33,inactive: 0.049,inactive: 0.078,inactive: -0.015
EIF2A (UniProt Q9BY44),inactive: -0.001,inactive: 0.114,inactive: -0.027,inactive: 0.004,inactive: 0.015
DYSF isoform 13 (UniProt O75923),inactive: 0.069,inactive: -0.013,inactive: 0.233,inactive: 0.018,inactive: -0.12
DYNLT1 (UniProt P63172),inactive: 0.061,inactive: -0.112,inactive: 0.038,inactive: 0.037,inactive: -0.045
DSN1 (UniProt Q9H410),inactive: -0.028,active: -0.358,inactive: -0.007,inactive: 0.008,inactive: -0.017
DR1 (UniProt Q01658),inactive: 0.019,inactive: 0.122,inactive: -0.06,inactive: 0.035,inactive: 0.057
DROSHA (UniProt Q9NRR4),inactive: 0.051,inactive: -0.294,inactive: -0.026,inactive: -0.052,inactive: -0.086
ECM1 isoform 4 (UniProt Q16610),inactive: -0.022,inactive: 0.045,inactive: -0.022,inactive: 0.059,inactive: -0.025
DTD1 (UniProt Q8TEA8),inactive: -0.055,inactive: 0.059,inactive: 0,inactive: -0.08,inactive: 0.011

# Exported as tab-separated lines: entries from further up.
Target	log2 fold change [1]	log2 fold change (vorinostat)	log2 fold change (silmitasertib)	log2 fold change [2]	log2 fold change (entospletinib)
EHMT2 (UniProt A2ABF8)	inactive: -0.027	inactive: -0.128	inactive: 0.015	inactive: -0.009	inactive: -0.017
EFHD1 (UniProt Q9BUP0)	inactive: 0.002	inactive: 0.143	inactive: -0.014	inactive: 0.031	inactive: -0.002
